Source: PubChem BioAssay AID1654 (Sanford-Burnham Center for Chemical Genomics, 2009)
The list shows a part of the results.

Protein sequences, listed by entry. Tags and fused reporters are not part of them.
UniProt P51452, whole entry: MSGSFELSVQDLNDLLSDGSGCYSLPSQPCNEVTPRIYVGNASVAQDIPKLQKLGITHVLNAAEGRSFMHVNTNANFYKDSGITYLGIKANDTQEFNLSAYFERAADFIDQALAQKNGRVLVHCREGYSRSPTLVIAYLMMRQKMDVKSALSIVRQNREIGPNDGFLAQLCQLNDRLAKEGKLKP

Molecular target: Dual specificity protein phosphatase 3 (Homo sapiens) (UniProt P51452)
Assay: inhibition of human DUSP3 activity – biochemical, absorbance, uHTS, primary screen (AID 1654)
Settings: recombinant VHR phosphatase, pNPP absorbance; measured here: average of confirmation repeats; at 13.3 µM; stronger effect = higher value

Compound	inhibition
Nc1cccc2c([As](=O)(O)O)cccc12	-0.9%
